Source: article doi:10.1101/2025.09.16.676456
No constants are given. Whether binding was seen depends on the method and setting. Binding seen in cells or lysates may run through a third protein. Some binding calls cover weakened binding; strength is not graded here.

Amino acid sequences for entries named in this document (tags omitted). A change or cut given only in a name is not applied to a line headed by its entry.
UniProt P48736: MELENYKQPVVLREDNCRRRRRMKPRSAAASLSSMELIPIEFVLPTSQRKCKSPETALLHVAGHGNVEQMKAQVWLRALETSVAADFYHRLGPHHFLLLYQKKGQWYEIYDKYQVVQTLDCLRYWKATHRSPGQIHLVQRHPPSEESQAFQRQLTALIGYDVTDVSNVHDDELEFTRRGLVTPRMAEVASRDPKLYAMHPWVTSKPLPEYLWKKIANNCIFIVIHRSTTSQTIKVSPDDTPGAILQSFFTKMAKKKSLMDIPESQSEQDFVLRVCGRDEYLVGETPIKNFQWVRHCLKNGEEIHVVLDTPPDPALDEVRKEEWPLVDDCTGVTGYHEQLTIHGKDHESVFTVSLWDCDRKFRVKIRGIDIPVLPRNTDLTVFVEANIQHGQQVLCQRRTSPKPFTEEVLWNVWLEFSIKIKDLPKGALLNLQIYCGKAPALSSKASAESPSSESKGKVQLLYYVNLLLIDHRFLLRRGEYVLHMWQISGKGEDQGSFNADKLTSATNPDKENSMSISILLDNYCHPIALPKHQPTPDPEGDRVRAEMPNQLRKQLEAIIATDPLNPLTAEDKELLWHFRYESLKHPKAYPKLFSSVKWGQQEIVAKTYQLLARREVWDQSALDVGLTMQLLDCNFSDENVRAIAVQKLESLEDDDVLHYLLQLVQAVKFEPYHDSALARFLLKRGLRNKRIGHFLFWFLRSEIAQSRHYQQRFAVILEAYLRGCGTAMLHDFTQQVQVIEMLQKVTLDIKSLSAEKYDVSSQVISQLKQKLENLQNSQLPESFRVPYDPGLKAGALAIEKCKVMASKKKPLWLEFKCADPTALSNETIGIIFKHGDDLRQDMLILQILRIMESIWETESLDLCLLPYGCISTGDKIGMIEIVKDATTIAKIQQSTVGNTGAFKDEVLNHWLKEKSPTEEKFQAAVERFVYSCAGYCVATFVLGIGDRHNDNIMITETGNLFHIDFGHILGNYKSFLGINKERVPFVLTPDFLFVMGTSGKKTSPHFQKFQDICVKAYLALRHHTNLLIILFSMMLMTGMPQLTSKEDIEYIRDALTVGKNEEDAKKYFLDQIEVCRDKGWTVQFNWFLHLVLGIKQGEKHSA

Target: p110γ, class IB PI3K catalytic subunit (human (endogenous in AGS, SNU-C2B, PANC-1)) (UniProt P48736)
Assay: co-IP

B1: p101, regulatory subunit of p110γ (PI3Kγ) (protein, UniProt Q8WYR1 1-880)
chain: MQPGATTCTEDRIQHALERCLHGLSLSRRSTSWSAGLCLNCWSLQELVSRDPGHFLILLEQILQKTREVQEKGTYDLLTPLALLFYSTVLCTPHFPPDSDLLLKAASTYHRFLTWPVPYCSICQELLTFIDAELKAPGISYQRLVRAEQGLPIRSHRSSTVTVLLLNPVEVQAEFLAVANKLSTPGHSPHSAYTTLLLHAFQATFGAHCDVPGLHCRLQAKTLAELEDIFTETAEAQELASGIGDAAEARRWLRTKLQAVGEKAGFPGVLDTAKPGKLHTIPIPVARCYTYSWSQDSFDILQEILLKEQELLQPGILGDDEEEEEEEEEVEEDLETDGHCAERDSLLSTSSLASHDSTLSLASSQASGPALSRHLLTSFVSGLSDGMDSGYVEDSEESSSEWPWRRGSQERRGHRRPGQKFIRIYKLFKSTSQLVLRRDSRSLEGSSDTALPLRRAGSLCSPLDEPVSPPSRAQRSRSLPQPKLGTQLPSWLLAPASRPQRRRPFLSGDEDPKASTLRVVVFGSDRISGKVARAYSNLRRLENNRPLLTRFFKLQFFYVPVKRSHGTSPGACPPPRSQTPSPPTDSPRHASPGELGTTPWEESTNDISHYLGMLDPWYERNVLGLMHLPPEVLCQQSLKAEAQALEGSPTQLPILADMLLYYCRFAARPVLLQVYQTELTFITGEKTTEIFIHSLELGHSAATRAIKASGPGSKRLGIDGDREAVPLTLQIIYSKGAISGRSRWSNLEKVCTSVNLNKACRKQEELDSSMEALTLNLTEVVKRQNSKSKKGFNQISTSQIKVDKVQIIGSNSCPFAVCLDQDERKILQSVVRCEVSPCYKPEKSDLSSPPQTPPDLPAQAAPDLCSLLCLPIMTFSGALP
In the case of B1, the binding is reported as “binds”.
